# Measured values published in publication PMC5988312.
# Amino acid sequences for entries named in this document (tags omitted).
# UniProt P04608: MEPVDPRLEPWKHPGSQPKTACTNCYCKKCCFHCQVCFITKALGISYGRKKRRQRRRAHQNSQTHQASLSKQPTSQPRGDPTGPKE
# UniProt P11142: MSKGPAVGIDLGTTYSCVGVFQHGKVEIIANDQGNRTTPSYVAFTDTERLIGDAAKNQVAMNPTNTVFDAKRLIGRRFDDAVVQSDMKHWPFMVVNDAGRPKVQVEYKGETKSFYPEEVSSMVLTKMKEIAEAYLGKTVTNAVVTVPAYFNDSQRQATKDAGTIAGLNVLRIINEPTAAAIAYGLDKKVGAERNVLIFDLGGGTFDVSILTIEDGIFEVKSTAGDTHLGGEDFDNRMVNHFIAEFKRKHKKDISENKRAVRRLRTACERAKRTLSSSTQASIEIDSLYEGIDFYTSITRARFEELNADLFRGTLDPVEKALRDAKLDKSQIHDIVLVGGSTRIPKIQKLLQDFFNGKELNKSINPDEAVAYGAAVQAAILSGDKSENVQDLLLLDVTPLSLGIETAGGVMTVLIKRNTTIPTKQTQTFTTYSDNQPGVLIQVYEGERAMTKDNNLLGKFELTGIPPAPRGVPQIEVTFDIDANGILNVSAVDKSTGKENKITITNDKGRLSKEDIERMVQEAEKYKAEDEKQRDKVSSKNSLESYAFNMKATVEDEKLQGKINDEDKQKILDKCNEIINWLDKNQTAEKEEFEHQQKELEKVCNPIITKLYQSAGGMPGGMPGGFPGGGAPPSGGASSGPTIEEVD
# UniProt Q9NT62: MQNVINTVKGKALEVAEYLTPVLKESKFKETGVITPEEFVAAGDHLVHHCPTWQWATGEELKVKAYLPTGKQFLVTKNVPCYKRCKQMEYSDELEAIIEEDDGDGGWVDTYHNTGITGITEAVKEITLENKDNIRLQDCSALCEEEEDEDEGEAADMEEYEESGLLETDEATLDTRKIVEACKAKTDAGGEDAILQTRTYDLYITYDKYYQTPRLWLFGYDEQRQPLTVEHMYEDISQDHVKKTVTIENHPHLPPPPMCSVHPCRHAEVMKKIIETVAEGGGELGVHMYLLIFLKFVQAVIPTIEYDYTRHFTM
# UniProt Q9NP77: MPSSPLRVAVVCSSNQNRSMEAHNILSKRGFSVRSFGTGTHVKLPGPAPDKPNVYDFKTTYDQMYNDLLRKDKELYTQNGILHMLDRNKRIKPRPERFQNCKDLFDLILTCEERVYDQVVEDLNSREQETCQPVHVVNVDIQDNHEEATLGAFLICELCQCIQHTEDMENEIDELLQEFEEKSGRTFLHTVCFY
# These are yes or no findings as the source states them, for the method shown. Binding seen in cells or lysates may run through a third protein. These calls come from enrichment with a bait or labelling near it, and not all partners need be listed.
# Molecular target: HA-Tat (HIV-1 Tat, HA-tagged) (HIV-1) (UniProt P04608)
# Assay: affinity purification with mass spectrometry; HA-Tat immunoaffinity purified complexes from HeLa cells, analysed by MudPIT proteomics
row,Substance,binding
1,HSC70 (from UniProt P11142 1-646),binds
2,ATG3 (from UniProt Q9NT62 1-314),binds
3,SQSTM1/p62 (from UniProt Q13501 1-440),binds
4,SSU72 (from UniProt Q9NP77 1-194),binds
